Laboratory results reported in PubChem BioAssay AID340 (DTP/NCI, 2004).
The list shows only some results of the screen, not a fair sample: it covers a few groups of compounds. Other doses and runs of a compound may be missing. T/C gives the treated animals as a percentage of the vehicle group. Where survival is the endpoint, the PubChem record calls one and a half times the control and up active, and a quarter to a half above the control has no call in these data; cut-offs in other NCI protocols can differ. Some entries show no survivor count and are marked so; the dose need not have been tolerated. Schedule codes are those of the source, taken here to give the interval after Q, in days (D) or hours (H), and the number of doses after X. Additions like (4×) give the number of equal values in this list. Some entries hold several experiments; the results are listed from low to high.

Test system: CD2F1 mice, ip reticulum cell sarcoma, survival T/C
Assay: NCI In Vivo Anticancer Drug Screen. Data for tumor model Reticulum Cell Sarcoma (Kelley Mouse) (intraperitoneal) in CD2F1 (CDF1) mice
Details: T/C endpoint: median survival time, schedule: Q01DX010 (ip), vehicle: saline, higher T/C = longer survival
Protocol: The antitumor activity of compounds was measured in mice bearing transplantable tumors. Survival or tumor size were measured and the results are expressed as the measurement made in the treated group (T) divided by the measurement made in the vehicle treated control group (C). The tumor model used in this assay is Reticulum Cell Sarcoma (Kelley Mouse) (intraperitoneal) in CD2F1 (CDF1) mice

## ClCCNCCCl
dose: 18.8 mg/kg/injection
  T/C: 100 [survivor count not shown] and 109 % of control [survivor count not shown]
dose: 37.5 mg/kg/injection
  T/C: 96 % of control [survivor count not shown] (2×)
dose: 75.0 mg/kg/injection
  T/C: 93 [survivor count not shown] and 109 % of control [survivor count not shown]
dose: 150.0 mg/kg/injection
  T/C: 93 % of control [survivor count not shown]

## NC1CCCCC1.NP(=O)(O)N(CCCl)CCCl
dose: 15.6 mg/kg/injection
  T/C: 257 % of control [survivor count not shown]
dose: 31.3 mg/kg/injection
  T/C: 292 % of control [survivor count not shown]
dose: 62.5 mg/kg/injection
  T/C: 135 % of control [survivor count not shown]

## CC(C(=O)O)N(CCCl)CCCl (stereo unspecified)
dose: 0.5 mg/kg/injection
  T/C: 106 % of control [survivor count not shown]
dose: 1.0 mg/kg/injection
  T/C: 100 [survivor count not shown] and 116 % of control [survivor count not shown]
dose: 2.0 mg/kg/injection
  T/C: 106 [survivor count not shown] and 119 % of control [survivor count not shown]
dose: 4.0 mg/kg/injection
  T/C: 103 [survivor count not shown] and 106 % of control [survivor count not shown]

## NC(Cc1cccc(N(CCCl)CCCl)c1)C(=O)O (stereo unspecified)
dose: 1.25 mg/kg/injection
  T/C: 118 % of control [survivor count not shown]
dose: 2.5 mg/kg/injection
  T/C: 103 % of control [survivor count not shown]

## O=C(O)CN(CCCl)CCCl
dose: 0.63 mg/kg/injection
  T/C: 103 % of control [survivor count not shown]
dose: 1.25 mg/kg/injection
  T/C: 106 [survivor count not shown] and 109 % of control [survivor count not shown]
dose: 2.5 mg/kg/injection
  T/C: 103 [survivor count not shown] and 116 % of control [survivor count not shown]
dose: 5.0 mg/kg/injection
  T/C: 106 % of control [survivor count not shown]

## ClCCN(CCCl)Cc1nc2ccccc2[nH]1
dose: 1.25 mg/kg/injection
  T/C: 103 [survivor count not shown] and 112 % of control [survivor count not shown]
dose: 2.5 mg/kg/injection
  T/C: 106 [survivor count not shown] and 112 % of control [survivor count not shown]
dose: 5.0 mg/kg/injection
  T/C: 115 [survivor count not shown] and 142 % of control [survivor count not shown]
dose: 10.0 mg/kg/injection
  T/C: 100 % of control [survivor count not shown]
